# Laboratory results: PubChem BioAssay (EPA / NIEHS)
# The chains behind the UniProt entries cited, without tags or fusion partners. Where a name states a change or a piece, a line headed by the entry shows the natural chain unless it says otherwise.
# UniProt P19793: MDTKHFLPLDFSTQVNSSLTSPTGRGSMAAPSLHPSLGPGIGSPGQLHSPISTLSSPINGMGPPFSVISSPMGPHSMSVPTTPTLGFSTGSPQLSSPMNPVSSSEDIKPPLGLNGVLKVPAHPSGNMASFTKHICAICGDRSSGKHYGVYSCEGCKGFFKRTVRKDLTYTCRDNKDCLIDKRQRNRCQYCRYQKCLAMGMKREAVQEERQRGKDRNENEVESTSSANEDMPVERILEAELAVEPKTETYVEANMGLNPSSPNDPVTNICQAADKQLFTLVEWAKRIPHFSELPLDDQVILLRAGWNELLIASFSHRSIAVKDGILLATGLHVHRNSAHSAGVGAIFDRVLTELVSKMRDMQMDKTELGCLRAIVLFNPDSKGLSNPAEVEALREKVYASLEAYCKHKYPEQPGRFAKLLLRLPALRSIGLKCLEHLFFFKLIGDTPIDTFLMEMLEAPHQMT
# UniProt P37231: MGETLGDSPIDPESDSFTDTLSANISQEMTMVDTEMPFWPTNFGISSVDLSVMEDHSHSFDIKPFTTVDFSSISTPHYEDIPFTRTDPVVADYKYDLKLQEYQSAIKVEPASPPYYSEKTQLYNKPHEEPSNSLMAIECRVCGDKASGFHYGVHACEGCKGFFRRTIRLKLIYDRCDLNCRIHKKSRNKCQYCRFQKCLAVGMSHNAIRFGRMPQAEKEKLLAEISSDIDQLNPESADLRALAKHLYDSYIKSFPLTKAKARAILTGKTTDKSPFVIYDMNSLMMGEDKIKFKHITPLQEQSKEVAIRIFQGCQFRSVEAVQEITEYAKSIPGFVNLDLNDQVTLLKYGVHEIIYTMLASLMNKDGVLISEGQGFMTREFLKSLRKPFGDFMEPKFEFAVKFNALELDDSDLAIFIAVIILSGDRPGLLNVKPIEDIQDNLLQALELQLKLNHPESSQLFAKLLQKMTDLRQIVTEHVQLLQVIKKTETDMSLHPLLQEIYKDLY
# UniProt P04637, whole entry, looked up: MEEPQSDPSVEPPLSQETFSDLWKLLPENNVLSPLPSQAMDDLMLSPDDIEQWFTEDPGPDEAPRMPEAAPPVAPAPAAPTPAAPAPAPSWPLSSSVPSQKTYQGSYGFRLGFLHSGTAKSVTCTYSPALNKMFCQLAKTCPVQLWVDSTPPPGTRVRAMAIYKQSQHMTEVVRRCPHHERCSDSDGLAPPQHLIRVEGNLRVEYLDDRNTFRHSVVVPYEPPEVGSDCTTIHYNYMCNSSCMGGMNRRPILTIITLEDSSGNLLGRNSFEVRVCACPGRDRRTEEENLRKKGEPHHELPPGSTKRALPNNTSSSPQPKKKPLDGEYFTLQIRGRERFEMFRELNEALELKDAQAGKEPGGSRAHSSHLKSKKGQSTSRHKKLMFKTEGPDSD
# “And” between values parts separate entries of the source, which are not always exact repeats. Identical values can stand only once. This list was built around the results that the source calls inconclusive (neither active nor inactive); the mix of calls is not that of the screen. For some of these results: Potencies of inconclusive entries are doubtful fits and often do not repeat. A structure can be active in one record and inactive in another. The source made the active and inactive calls. How the source made its calls: active means hit-call score of the fitted dose curve at least 0.9, where 1 is the maximum; inconclusive means response in the unintended direction; inactive means score below 0.9.
# What was measured:
# [1] = target: Retinoic acid receptor RXR-alpha (Homo sapiens) (UniProt P19793); test: OT_NURR1_NURR1RXRa_1440: Odyssey Thera (OT) 24-hour HEK293T Protein Complementation Assay for Nurr1/retinoid X receptor (RXR) (AID 2283386)
# Procedure, shortened: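 Gain in fluorescence, fitted relative to DMSO, reflects Nurr1–RXRα association in HEK293T cells after 24 h dosing. Bait and prey are each linked to a reporter-protein fragment that reassembles on interaction.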
# [2] = target: Peroxisome proliferator-activated receptor gamma (Homo sapiens) (UniProt P37231); test: OT_PPARg_PPARgSRC1_0480: Odyssey Thera (OT) 8-hour Protein-Complementation Assay for Peroxisome Proliferator-activated Receptor Gamma / SRC-1 Co-activator (AID 2283387)
# Procedure, shortened: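 Split-YFP (IFP1/IFP2) PPARg/SRC-1 reporter, HEK293T, 37 °C, 5% CO2; 8 h compound; formaldehyde fix + Draq5; high-content imaging, N/C ratio, ≥350 cells/image, positive direction vs DMSO.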
# [3] = TOX21_p53_BLA_p3_viability: Viability Assessment in the Tox21 HCT-116 p53 Agonism Beta-lactamase Assay, Phase 3 (AID 2283593);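 further: cells exposed to compound for 16 h before reading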
# Procedure, shortened: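 HCT-116 cells (4000/well) rested 5 h at 37C, then got DMSO compounds by pin tool (217-fold dilution) for 16 h at 37C, 5% CO2. After the bla read, CellTiter-Glo was added and luminescence read at 30 min, room temperature.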
# [4] = target: Cellular tumor antigen p53 (Homo sapiens) (UniProt P04637); test: TOX21_p53_BLA_p3_ratio: Tox21 HCT-116 p53 Agonism Beta-lactamase Assay, Ratio, Phase 3 (AID 2283596)
# Procedure, shortened: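 Cells were seeded at 4000/well, rested 5 h at 37C, then dosed with DMSO compound solutions (217-fold dilution) for 16 h. CCF4-AM substrate was loaded for 2 h at room temperature, and the 460/530 nm emission ratio was fitted for gain of signal versus DMSO.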
# [5] = target: Peroxisome proliferator-activated receptor gamma (Homo sapiens) (UniProt P37231); test: OT_PPARg_PPARgSRC1_1440: Odyssey Thera (OT) 24-hour Protein-Complementation Assay for Peroxisome Proliferator-activated Receptor Gamma/ SRC-1 Co-activator (AID 2283388)
# Procedure, shortened: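 HEK293T transiently transfected with PPARg/SRC-1 split-Venus YFP fusions 48 h before dosing, then treated 24 h at 37C. Fixed cells imaged; nuclear/cytoplasmic 488 nm fluorescence ratio, gain of signal versus DMSO.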
# [6] = target: Retinoic acid receptor RXR-alpha (Homo sapiens) (UniProt P19793); test: OT_NURR1_NURR1RXRa_0480: Odyssey Thera (OT) 8-hour HEK293T Protein Complementation Assay for Nurr1/retinoid X receptor (RXR) (AID 2283385)
# Procedure, shortened: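 Interaction of Nurr1 with RXRα read as reconstituted reporter fluorescence in a HEK293T fragment-complementation system, 8 h post-treatment; increase over DMSO baseline analysed.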
# [7] = target: Cellular tumor antigen p53 (Homo sapiens) (UniProt P04637); test: TOX21_p53_BLA_p2_ratio: Tox21 HCT-116 p53 Agonism Beta-lactamase Assay, Ratio, Phase 2 (AID 2283592)
# Procedure, shortened: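 First, HCT116 reporter cells settle for 5 h at 37C. Next, DMSO compound solutions are pinned in (217-fold dilution) and left 16 h. Finally, CCF4-AM substrate is loaded 2 h at room temperature and the 460/530 nm ratio read.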
# [8] = TOX21_p53_BLA_p2_viability: Viability Assessment in the Tox21 HCT-116 p53 Agonism Beta-lactamase Assay, Phase 2 (AID 2283591);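 further: compound exposure lasted 16 h at 37 °C; actives lower the ATP signal meaning cytotoxicity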
# Procedure, shortened: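 HCT-116 p53-bla cells (4000/well) rested 5 h at 37C, then received compounds in DMSO (217-fold dilution) for 16 h at 37C, 5% CO2. After the CCF4 read, CellTiter-Glo was added; ATP luminescence was read after 30 min at room temperature.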
# [9] = ATG_XTT_Cytotoxicity: Cytotoxicity Assessment in the Attagene TRANS-FACTORIAL HepG2 Assay (AID 2283584);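 on AC50: XTT signal for cell number as viability in transfected HepG2 cells; cells exposed to compound for 24 h before reading; active means loss of viability signal versus DMSO baseline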
# Procedure, shortened: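 HepG2 cells transiently transfected with GAL4-UAS multiple reporter units, dosed 24 h; cytotoxicity read by XTT as loss of signal versus DMSO baseline.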
structure (smiles),measurement,setting,value
Cc1cccnc1,outcome,[1],inactive
CCCCc1nc2cccnc2n1Cc1ccc(-c2ccccc2-c2nnn[nH]2)cc1,AC50,[1],active: 7.85 µM
same,AC50,[2],active: 18.5 µM
same,AC50,[3],inconclusive: 14.3 µM
same,outcome,[4],inactive
Cc1oc(-c2ccccc2)nc1CCOc1cccc2c1ccn2CCC(=O)O,AC50,[1],inconclusive: 50 µM
same,AC50,[2],active: 2.57 µM and active: 4.49 µM
same,AC50,[5],active: 3.58 µM and active: 2.88 µM
CC(=O)OC/C=C(C)/C=C/C=C(C)/C=C/C1=C(C)CCCC1(C)C,AC50,[6],active: 27.5 µM
same,AC50,[7],inconclusive: 46.1 µM and inconclusive: 15.8 µM
same,AC50,[4],inconclusive: 46.1 µM and inconclusive: 72.8 µM and inconclusive: 23 µM
CCC(=O)O[C@@H]1C[C@H]2CC[C@]1(C)C2(C)C,AC50,[6],inconclusive: 49.2 µM
same,AC50,[7],inconclusive: 45.4 µM
same,AC50,[3],inconclusive: 45.4 µM
NC(N)=O,outcome,[1],inactive
O=C(O)c1cccnc1,AC50,[1],inconclusive: 50 µM
CCCCCCCCCCOC(=O)c1ccccc1C(=O)OCCCCCCCC,AC50,[6],inconclusive: 0.173 µM
same,AC50,[7],inconclusive: 31 µM
same,AC50,[3],inconclusive: 46.1 µM
NC(=O)NO,AC50,[6],inconclusive: 50 µM
same,AC50,[7],inconclusive: 23 µM
O=C(O)c1cccc(N(Cc2cccnc2)c2ccc(OC(F)F)c(OC(F)F)c2)c1,AC50,[1],active: 32.4 µM
NS(=O)(=O)O,outcome,[1],inactive
same,AC50,[2],inconclusive: 49 µM
same,AC50,[7],inconclusive: 45.3 µM
same,AC50,[4],inconclusive: 45.3 µM
OC[C@@H](O)[C@H](O)[C@@H](O)[C@@H](O)CO,outcome,[6],inactive
same,outcome,[3],inactive
COc1c(Cl)c(Cl)c(Cl)c(Cl)c1Cl,AC50,[1],inconclusive: 35.2 µM
O=C1c2ccccc2C(=O)N1CCc1noc(-c2ccc(CN3CCCCCC3)s2)n1,AC50,[1],inconclusive: 7.06 µM
CC(C)(C)C1CCC(O)CC1 (configuration not stated),AC50,[6],inconclusive: 50 µM
same,AC50,[7],inconclusive: 46.6 µM
same,outcome,[7],inactive
same,AC50,[3],inconclusive: 46.1 µM
same,outcome,[3],inactive
COc1ccccc1O,outcome,[6],inactive
same,AC50,[3],inconclusive: 11.4 µM and inconclusive: 23 µM
O=C(N[C@@H](Cc1ccccc1)[C@@H](O)C(=O)N1C[C@@H](O)[C@@H](O)C1)c1cc2cc(Cl)ccc2[nH]1,AC50,[1],inconclusive: 15.4 µM
same,outcome,[1],inactive
same,outcome,[8],inactive
same,outcome,[7],inactive
O=C(OCc1ccccc1)c1ccccc1,AC50,[1],inconclusive: 50 µM
same,outcome,[9],inactive
Clc1ccc(C(c2ccccc2Cl)C(Cl)Cl)cc1 (configuration not stated),AC50,[1],inconclusive: 34.7 µM
same,AC50,[2],inconclusive: 50 µM
same,AC50,[9],active: 148 µM
same,AC50,[8],active: 46.1 µM and active: 30.1 µM
same,AC50,[7],active: 83.3 µM and active: 39.1 µM
same,AC50,[3],active: 67.7 µM and active: 31.2 µM
same,AC50,[4],active: 55.9 µM and active: 37.2 µM
C[Si](C)(C)O[Si](C)(C)O[Si](C)(C)C,outcome,[6],inactive
same,outcome,[4],inactive
CCCCC(C=O)CC (configuration not stated),outcome,[1],inactive
CS(=O)(=O)c1ccc([C@@H](CC2CCCC2)C(=O)Nc2cnccn2)cc1Cl,AC50,[1],inconclusive: 12.6 µM
CCCCOC(=O)c1ccccc1,AC50,[1],inconclusive: 50 µM
same,outcome,[1],inactive
same,AC50,[9],inconclusive: 100 µM
same,AC50,[8],inconclusive: 17.4 nM
CC(C)c1ccc(C(=O)N=C(N)N)cc1S(C)(=O)=O,AC50,[1],inconclusive: 18.5 µM
same,outcome,[1],inactive
same,AC50,[8],inconclusive: 34300 nM
same,outcome,[7],inactive
same,outcome,[3],inactive
COC(OC)(C(=O)c1ccccc1)c1ccccc1,AC50,[9],inconclusive: 100 µM
CCC(=O)C1CC(C(C)C)CC=C1C (configuration not stated),outcome,[9],inactive
Clc1cc(Cl)c(Cl)cc1Cl,outcome,[1],inactive
same,AC50,[7],inconclusive: 46.1 µM and inconclusive: 46.7 µM
same,AC50,[3],inconclusive: 46.1 µM
same,AC50,[4],inconclusive: 46.1 µM
CCCCC(CC)CN1C(=O)C2C3C=CC(C3)C2C1=O (configuration not stated),outcome,[1],inactive
same,AC50,[3],inconclusive: 46.1 µM
same,AC50,[4],inconclusive: 73.1 µM
